# Primary screen of a compound library

Data taken from ChEMBL document CHEMBL3988442, “University of Dundee, Small-Polar-MMV Screening Library” (2021).

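Viability assay of Plasmodium falciparum sporozoites; the read-out is not stated. The concentration is filed as 10 mM, unlikely as a test dose, so the dose is not known. The record gives no direction; compounds that gave an IC50 in retests scored well above the rest, so higher reads as lower viability. Strong results were mostly tested again. Size under these conditions: about 34,000 compounds, about 280 of them at 50% or above in at least one test.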

Results are given as percent effect. How 0% and 100% were set is not recorded. Most values in the screen are low, and negative values occur. Compounds were drawn at random from those tested, without regard to their results. Two or more numbers in one place are separate tests of the same structure; such repeats can differ widely.

| SMILES | effect |
|---|---|
| `Cn1nccc1C(=O)NCCN1CCC(O)(c2ccc(F)cc2)CC1` | 1.9 |
| `Cc1cc(C2CCN(C(=O)c3cnn(C)c3)CC2)ccn1` | 2.879 |
| `O=C(c1cc[nH]n1)N1CCN(C(c2ccccc2)C(F)(F)F)CC1` (stereo not drawn) | -2.086 |
| `CCc1nc(C2CCCN(C(=O)c3cnn(CC)c3)C2)no1` (stereo not drawn) | -17.56 and 8.455 and -25.66 |
| `CSc1nccn1-c1ccc(C(=O)NCC2CC2)cc1` | -15.23 |
| `CCN(C)CC1CCN(C(=O)Nc2ccc(-c3cc[nH]n3)cc2)C1` (stereo not drawn) | -1.001 |
| `CC(Cn1cccn1)NC(=O)Nc1ccccn1` (stereo not drawn) | -8.967 |
| `CC/C=C(/C)C(=O)N1CSCC1C(=O)NC1=NCCS1` (stereo not drawn) | -4.329 |
| `CCOc1ccc(CN2CCC(c3ccn[nH]3)C2)cc1CO` (stereo not drawn) | 12.59 |
| `O=c1[nH][nH]cc1-c1ccnc(NCCCN2CCOCC2)n1` | 11.77 |
| `FC1(F)CCN(Cc2cccnc2)CC12CCN(c1ccccn1)C2.O=C(O)C(F)(F)F.O=C(O)C(F)(F)F.O=C(O)C(F)(F)F` (stereo not drawn) | 2.057 |
| `CO[C@@H]1CN(c2ccccc2)S(=O)(=O)[C@@]12CCNC2` | 17.89 |
| `CN(Cc1ccccn1)C1CCCN(Cc2noc(C3CC3)n2)C1` (stereo not drawn) | 3.142 |
| `CCOc1cc(C)nc(N2CCN(C(=O)c3cn[nH]c3CC)CC2)n1` | 5.554 |
| `Cc1nn(C)c(C)c1OCC(=O)NCC(O)c1ccccc1F` (stereo not drawn) | 0.7667 |
| `CCCNC(=O)c1cc2c(c3ccccc3n2C)n1C(=O)N(C)C` | -0.783 |
| `CCn1ccnc1CN1CCN(Cc2cc(C#N)ccc2F)CC1` | 6.524 |
| `O=C1N(CCC2CCCCC2)CCCC1(O)CNCCc1ccccc1` (stereo not drawn) | -4.123 |
| `O=C(Cn1cnc2cc3c(cc21)OCCCO3)NC1CCCC1` | 34.04 and 26.95 and 25.51 |
| `Cc1[nH]ccc1C(=O)NCC1CC(=O)N(CCc2ccccc2)C1` (stereo not drawn) | -22.6 |
| `CCOc1ccc(OCCN2CCC(N3CCNC3=O)CC2)cc1` | -8.132 |
| `CS(=O)(=O)NCc1cc(-c2cc(F)cc(F)c2)nc(N2CCOCC2)n1` | 17.7 |
| `Cc1noc(C2CCC3(CCN(C(=O)c4cnccn4)CC3)O2)n1` (stereo not drawn) | 4.825 |
| `CCN1CCCC(O)(c2nc(C)c(CCOc3ccccc3F)s2)CC1` (stereo not drawn) | 16.92 |
| `CCOCCCC(=O)NC1CCN(C(C)c2ccccc2)CC1` (stereo not drawn) | -14.82 |
| `O=C(O)C(F)(F)F.[H][C@@]12CCN(Cc3ccc(C)s3)C[C@]1(COCC(=O)N(C)C)CCO2` | 14.91 |
| `O=C(O)C(F)(F)F.O=C(O)C(F)(F)F.[H][C@@]12CCN(Cc3cnn(C)c3)[C@@]1([H])CCN2Cc1ccc2c(c1)OCO2` | 1.711 |
| `O=C(NC1CCCCC1)N1CCc2onc(COc3cccnc3)c2C1.O=C(O)C(F)(F)F` | -0.2577 |
| `O=C(c1ccccc1)N1CCN(CC(O)c2ccc(F)cc2)CC1` (stereo not drawn) | 6.69 |
| `CSCCCN1CCCC(Cn2ccnc2)C1` (stereo not drawn) | 0.223 |
| `Cc1nc(NCC23CCCN2CCC3)cc(C2CCCNC2)n1` (stereo not drawn) | 8.947 |
| `Cc1nc(-c2cccc(C(=O)O)c2)cc(C2CCCN(C(C)C)C2)n1` (stereo not drawn) | 3.641 |
| `CSCc1ccc(C(=O)NCCCNc2ccc(C(F)(F)F)cn2)cc1` | 14.37 |
| `Cc1cc2cc(C(=O)N3C[C@H](O)[C@]4(CCCO4)C3)ccc2o1` | 4.854 |
| `O=C(O)C(F)(F)F.[H][C@@]12CN(CC)C[C@]1([H])[C@H](OC)CCN2S(=O)(=O)c1ccccc1F` | 13.83 |
| `[H][C@]12CC[C@]([H])(CN(Cc3cscn3)C1)N(Cc1cc(CC(C)C)[nH]n1)C2` | 2.615 |
| `CN1C(=O)C2(CCNCC2)c2cc(F)ccc21.Cl` | 3.833 |
| `Cn1cc(C(=O)Nc2ccnc(Oc3ccccc3)c2)ccc1=O` | -4.135 |
| `CC(=O)N(C)[C@H]1CC[C@]2(CC1)CNC(=O)c1cc(C)ccc1O2` | -0.8223 |
| `O=C(CCCOc1ccccc1)N1CCCC1Cn1cccn1` (stereo not drawn) | 7.493 |
| `CN(C)C(=O)c1cc2ncc(C(=O)NC3CCCC3)cc2n1C` | -0.3012 |
| `O=C(O)C(F)(F)F.[H][C@@]12CN(c3cccnc3)CC[C@]1([H])CN(c1cccc(F)c1)C2` | -9.47 |
| `CN(C)c1ncccc1CNS(=O)(=O)c1ccc(F)c(F)c1` | 2.925 |
| `CC(CC(=O)NCCCn1cccn1)c1cccnc1` (stereo not drawn) | -10.29 |
| `CC(=O)NC[C@]1(O)CCN(C(=O)c2ccc3c(c2)CCC3)C[C@H]1O` | -2.51 |
| `CCN1CCCC(c2cc(Nc3cnccn3)nc(C)n2)C1` (stereo not drawn) | 1.251 |
| `CC(Cn1cccn1)NC(=O)c1cccs1` (stereo not drawn) | 11.04 |
| `Cc1noc(C)c1CN1CCC2(CC1)NC(=O)CC2c1cnn(C)c1` (stereo not drawn) | 9.781 |
| `O=C(O)C(F)(F)F.[H][C@@]12OCCN(C(=O)c3cscn3)[C@@]1([H])CC[C@@H]2Oc1ccccn1` | 3.559 |
| `COc1cccc(S(=O)(=O)NC2CNC(=O)C2)c1` (stereo not drawn) | -11.22 |
| `[H][C@@]12CCN(Cc3ccco3)C[C@@]1([H])O[C@@H](c1ccnc(C)n1)C2` | -8.273 |
| `Cc1cccnc1C(Cc1ccsc1)NC(=O)Cn1cccnc1=O` (stereo not drawn) | 2.465 |
| `O=C(c1ccoc1)N1CCn2cnc(COCC3CC3)c2C1` | 1.128 |
| `O=C(O)C(F)(F)F.O=C(O)C(F)(F)F.c1ccc(COC[C@@H]2CCC[C@]23CN(Cc2nccs2)CCO3)nc1` | -3.694 |
| `Cc1cnn(C2CN(CCOc3cccc(C#N)c3)C2)c1` | -3.028 |
| `O=C(Cc1ccsc1)N1Cc2nc(CN3CCCCC3)oc2C1.O=C(O)C(F)(F)F` | -7.18 |
| `CC(C)c1ncc(CN2CCCC2c2[nH]ncc2C(=O)N(C)C)cn1` (stereo not drawn) | 2.302 |
| `CC(Cc1ccco1)NC(=O)Nc1cccnc1` (stereo not drawn) | 4.767 |
| `NC(=O)Nc1cccc(C(=O)N(Cc2ccncc2)C2CC2)c1` | 2.625 and 3.331 |
| `CCc1sc(C(=O)NC2CC2)cc1C` | -12.99 |
| `Cn1ccnc1CN1CCc2c(COCC3CC3)nn(C)c2C1` | 5.565 |
| `O=C(COc1cccc2c1CCC2=O)NCc1ccccc1Cl` | -23.77 |
| `CCC(CC)C(=O)N1CCC2(C1)CN(c1ccccc1)C(=O)CN2C.O=C(O)C(F)(F)F` (stereo not drawn) | 10.18 |
| `Cc1cnn(C2CCCN(C(=O)c3sccc3-n3cnnn3)C2)c1` (stereo not drawn) | 0.8052 |
| `O=C(c1cn(-c2cc(N3CCSCC3)ncn2)cn1)N1CCSCC1` | -0.5903 |
| `COc1ncc(C2(O)CCN(Cc3ccc(F)c(F)c3)CC2)c(OC)n1.Cl` | 9.372 |
| `Cc1nn(C)c(C)c1OCC(=O)NCC(O)c1ccsc1` (stereo not drawn) | -14.57 |
| `CCc1cc(C(F)(F)F)c2c(C)nn(CC(=O)O)c2n1` | -8.952 |
| `COc1ccc(C)cc1CN(Cc1nc(C)c(C)o1)C1CCN(C)C1` (stereo not drawn) | -24.14 |
| `CCOCCCNC(=O)N(C)Cc1ccc(SC)c(OC)c1` | -15.74 |
| `Cc1cc(CN(C)C(=O)c2ccc(OCC(F)(F)F)nc2)no1` | 5.915 |
| `COc1ccccc1CC1CCCN(CC(=O)NC2CC2)C1` (stereo not drawn) | 0 |
| `Cc1ccc2cc(CNCCCN3CCOCC3)c(=O)[nH]c2c1` | -29.27 |
| `Cc1cc(C)n(CC2CN(Cc3nc(C)c(C)o3)CCO2)n1` (stereo not drawn) | 8.575 |
| `c1ccc(OCCN2CCCCC2Cn2cncn2)cc1` (stereo not drawn) | 7.92 |
| `Cn1cc(CN2CCCC3(CCCN3S(C)(=O)=O)C2)cn1.O=C(O)C(F)(F)F` (stereo not drawn) | -8.389 |
| `CCc1nc(N2CCC3(CC2)OCCCC3O)ncc1C` (stereo not drawn) | -4.035 |
| `CN(C)C(=O)C1CCN(C(=O)c2c[nH]c3cc(Cl)ccc23)CC1` | -13.43 |
| `COc1cc(OC)cc(-c2cc(CN)nc3ccnn23)c1.Cl` | 7.875 |
| `COc1cccc(CN2CCC(c3nn(CCN)c4nccnc34)C2)c1` (stereo not drawn) | 15.7 |
| `O=C(N1CCCC1)N1Cc2nccn2CC(COc2cccnc2)C1.O=C(O)C(F)(F)F` (stereo not drawn) | 11.97 |
| `CN(Cc1ccco1)C(=O)C1CSCN1C(=O)C1CCC1` (stereo not drawn) | 12.99 |
| `Cc1cc(NC(=O)NCC(O)c2ccc(F)c(F)c2)n(C)n1` (stereo not drawn) | 1.175 |
| `CC(C)c1nc2c(n1C)CCN(Cc1nc(-c3cccs3)no1)C2` | 44.7 and 61.16 and 58.76 |
| `CN(CCn1nc2ccccn2c1=O)CC(=O)NC1CC1` | -10.71 |

10 of the entries, repeated:

- CCC(CC)C(=O)N1CCC2(C1)CN(c1ccccc1)C(=O)CN2C.O=C(O)C(F)(F)F (stereo not drawn) | 10.18%
- CC/C=C(/C)C(=O)N1CSCC1C(=O)NC1=NCCS1 (stereo not drawn) | -4.329%
- Cc1cc(C)n(CC2CN(Cc3nc(C)c(C)o3)CCO2)n1 (stereo not drawn) | 8.575%
- O=C(c1ccoc1)N1CCn2cnc(COCC3CC3)c2C1 | 1.128%
- CN1C(=O)C2(CCNCC2)c2cc(F)ccc21.Cl | 3.833%
- O=C1N(CCC2CCCCC2)CCCC1(O)CNCCc1ccccc1 (stereo not drawn) | -4.123%
- CCOc1cc(C)nc(N2CCN(C(=O)c3cn[nH]c3CC)CC2)n1 | 5.554%
- CN(CCn1nc2ccccn2c1=O)CC(=O)NC1CC1 | -10.71%
- CCN(C)CC1CCN(C(=O)Nc2ccc(-c3cc[nH]n3)cc2)C1 (stereo not drawn) | -1.001%
- CC(=O)NC[C@]1(O)CCN(C(=O)c2ccc3c(c2)CCC3)C[C@H]1O | -2.51%